Test results reported in PMC10622508.
Results are given in words; binding and its absence hold for the method and conditions named. In cells and extracts the contact can be indirect. Some entries that bind do so weakly or less than the wild type. For some of these results: Where a sequence is shown, tags or fusion partners need not be part of it.

Protein sequences, listed by entry. Tags and fused reporters are not part of them.
UniProt Q13164: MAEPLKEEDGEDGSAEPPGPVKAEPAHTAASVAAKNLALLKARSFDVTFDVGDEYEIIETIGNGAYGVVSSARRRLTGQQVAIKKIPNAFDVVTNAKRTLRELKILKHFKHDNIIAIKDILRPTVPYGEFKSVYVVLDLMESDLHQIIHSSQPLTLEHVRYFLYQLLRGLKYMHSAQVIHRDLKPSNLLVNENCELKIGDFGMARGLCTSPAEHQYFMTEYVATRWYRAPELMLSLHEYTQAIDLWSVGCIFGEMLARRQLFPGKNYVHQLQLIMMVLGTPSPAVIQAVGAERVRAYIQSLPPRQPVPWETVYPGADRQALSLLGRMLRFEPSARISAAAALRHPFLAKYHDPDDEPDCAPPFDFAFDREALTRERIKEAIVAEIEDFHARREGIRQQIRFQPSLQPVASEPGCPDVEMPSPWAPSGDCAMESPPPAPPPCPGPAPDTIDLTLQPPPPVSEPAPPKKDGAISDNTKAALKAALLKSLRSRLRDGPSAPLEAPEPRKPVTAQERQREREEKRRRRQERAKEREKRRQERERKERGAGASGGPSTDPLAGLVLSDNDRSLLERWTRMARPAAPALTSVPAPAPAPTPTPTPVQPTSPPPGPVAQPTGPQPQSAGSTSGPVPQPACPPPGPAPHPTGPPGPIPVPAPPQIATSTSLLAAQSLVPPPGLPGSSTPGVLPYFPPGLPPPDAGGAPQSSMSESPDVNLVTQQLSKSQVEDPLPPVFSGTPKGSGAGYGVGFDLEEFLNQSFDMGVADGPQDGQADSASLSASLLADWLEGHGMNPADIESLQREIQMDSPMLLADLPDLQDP
UniProt Q14790: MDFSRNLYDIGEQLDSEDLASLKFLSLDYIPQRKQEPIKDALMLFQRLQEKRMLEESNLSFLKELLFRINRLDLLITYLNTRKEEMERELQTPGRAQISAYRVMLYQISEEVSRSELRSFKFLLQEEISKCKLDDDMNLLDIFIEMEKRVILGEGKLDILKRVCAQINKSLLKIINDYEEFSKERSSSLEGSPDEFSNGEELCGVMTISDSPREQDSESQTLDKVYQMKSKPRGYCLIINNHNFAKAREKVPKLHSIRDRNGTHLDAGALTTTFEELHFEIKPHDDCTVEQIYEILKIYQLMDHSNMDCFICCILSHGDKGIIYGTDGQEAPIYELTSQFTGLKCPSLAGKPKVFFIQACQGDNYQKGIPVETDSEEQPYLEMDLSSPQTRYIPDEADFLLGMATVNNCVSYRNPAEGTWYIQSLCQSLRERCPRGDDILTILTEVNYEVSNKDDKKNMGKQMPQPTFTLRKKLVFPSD

T1: FLAG-tagged human TP53INP2 (wild type) (human) (UniProt Q8IXH6)
T1 sequence: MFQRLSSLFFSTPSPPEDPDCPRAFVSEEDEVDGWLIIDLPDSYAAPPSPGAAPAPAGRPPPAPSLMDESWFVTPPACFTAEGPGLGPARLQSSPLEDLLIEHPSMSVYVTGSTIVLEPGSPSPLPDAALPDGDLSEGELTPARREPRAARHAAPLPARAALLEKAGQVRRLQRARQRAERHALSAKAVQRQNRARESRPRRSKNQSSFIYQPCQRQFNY


Tests used:
[1] = target: T1, FLAG-tagged human TP53INP2 (wild type) (human); test: co-IP; FLAG-TP53INP2 immunoprecipitated (anti-FLAG-M2 affinity beads) from lysates of HEK293T cells treated with vehicle or 3 uM JWG-071 for 6 h; Caspase-8 detected by immunoblot; NP-40 buffer
[2] = target: MAP kinase ERK5 (endogenous) (human (endogenous in Ishikawa)) (UniProt Q13164); test: co-IP; 1 mg Ishikawa cell lysate immunoprecipitated with anti-ERK5 antibody on protein G-sepharose, 2 h at 4 C, NP-40 buffer; endogenous TP53INP2 and ERK5 detected by immunoblot
[3] = target: GST-tagged human ERK5 (WT) (human) (UniProt Q13164); test: co-IP; lysates of cells overexpressing GST-tagged ERK5 and FLAG-tagged TP53INP2 (wild type or 3A); anti-FLAG-M2 affinity beads or glutathione-Sepharose beads; which protein was the bait is not given

Molecule | binding [3] | also measured
Caspase-8 (from UniProt Q14790 1-479) | – | binding [1]: binds
TP53INP2 (endogenous) (protein, UniProt Q8IXH6 1-220) MFQRLSSLFFSTPSPPEDPDCPRAFVSEEDEVDGWLIIDLPDSYAAPPSPGAAPAPAGRPPPAPSLMDESWFVTPPACFTAEGPGLGPARLQSSPLEDLLIEHPSMSVYVTGSTIVLEPGSPSPLPDAALPDGDLSEGELTPARREPRAARHAAPLPARAALLEKAGQVRRLQRARQRAERHALSAKAVQRQNRARESRPRRSKNQSSFIYQPCQRQFNY | – | binding [2]: binds
FLAG-tagged human TP53INP2 (wild type) (protein, UniProt Q8IXH6 1-220) MFQRLSSLFFSTPSPPEDPDCPRAFVSEEDEVDGWLIIDLPDSYAAPPSPGAAPAPAGRPPPAPSLMDESWFVTPPACFTAEGPGLGPARLQSSPLEDLLIEHPSMSVYVTGSTIVLEPGSPSPLPDAALPDGDLSEGELTPARREPRAARHAAPLPARAALLEKAGQVRRLQRARQRAERHALSAKAVQRQNRARESRPRRSKNQSSFIYQPCQRQFNY | binds | –
FLAG-tagged human TP53INP2-S49A/S65A/T74A (protein, UniProt Q8IXH6 1-220) MFQRLSSLFFSTPSPPEDPDCPRAFVSEEDEVDGWLIIDLPDSYAAPPAPGAAPAPAGRPPPAPALMDESWFVAPPACFTAEGPGLGPARLQSSPLEDLLIEHPSMSVYVTGSTIVLEPGSPSPLPDAALPDGDLSEGELTPARREPRAARHAAPLPARAALLEKAGQVRRLQRARQRAERHALSAKAVQRQNRARESRPRRSKNQSSFIYQPCQRQFNY | binds | –
